We go through seven molecules from patent publication US10137212B2, “Tetrahydroxamate chelators of zirconium89 and niobium90 for use in diagnostic applications” (priority 2013, dated 2018).

This data set is described as follows: complexation of ligands with ^89Zr, yield by ITLC-SG. The data set is classed as physicochemical. As to conditions: ~50 MBq ^89Zr reacted with 38 nmol of ligand. How it is done:
All solutions described below were prepared with de-ionized water purified through a Chelex column prior to use. Stock solutions of ^89Zr at pH 7 were prepared as follow: to 450 μL of the ^89Zr solution in oxalic acid were added 450 μL of a 1M Na2CO3 solution and the pH was adjusted to 7 by addition of small aliquots of a 0.1 M Na2CO3 or 0.1 M HCl. 450 μL of water containing 3% bovine serum albumin were then added. To 45 μL of stock solution (˜1.3 MBq of ^89Zr in a typical experiment) were added 7.5 nmol (5 μL) of L5, L6, L7, C5, C6, or C7 in DMSO or the natural siderophore desferrioxamine B (DFB) mesylate in de-ionized water. These solutions were incubated at desired temperatures and time of reaction and analyzed by ITLC-SG using a 50 mM EDTA (ethylenediaminetetraacetic acid) solution adjusted to pH=7 in de-ionized water as eluant, and analyzed with a Typhoon 8600 scanner (GE Healthcare) in phosphorimaging mode. The percentage of the activity bound to the ligand after TLC was calculated by converting the TLC scan into a chromatogram and integrating the peak corresponding to the spot at the bottom of the TLC. Activity ratios were averaged out of a minimum of 2 TLCs for each condition. The influence of time and temperature on the complexation yield of ^89Zr by L5, L6, L7, C5, C6 and C7 and DFB is shown in Table 1. […]
Take `CC(=O)N(O)CCCCCNC(=O)CCC(=O)N(O)CCCCCNC(=O)CCC(=O)N(O)CCCCCN` [DFB, desferrioxamine B, reference compound]: the specific activity achieved was found to be 1.31 MBq/nmol.
Molecule `O=C1CCCCCN(O)C(=O)CCCCCN(O)C(=O)CCCCCN(O)C(=O)CCCCCN1O` [Ligand C5] came in with a specific activity achieved of 0.30 MBq/nmol.
As for `O=C1CCCCCCN(O)C(=O)CCCCCCN(O)C(=O)CCCCCCN(O)C(=O)CCCCCCN1O` [Ligand C6], the specific activity achieved was determined as 1.21 MBq/nmol.
In turn, `O=C1CCCCCCCN(O)C(=O)CCCCCCCN(O)C(=O)CCCCCCCN(O)C(=O)CCCCCCCN1O` [Ligand C7] registered a specific activity achieved of 1.31 MBq/nmol.
As to `CCCCC(=O)N(O)CCCCCC(=O)N(O)CCCCCC(=O)N(O)CCCCCC(=O)N(O)CCC` [Ligand L5], the specific activity achieved worked out at 0.96 MBq/nmol.
For `CCCCCC(=O)N(O)CCCCCCC(=O)N(O)CCCCCCC(=O)N(O)CCCCCCC(=O)N(O)CCC` [Ligand L6] the value was 1.26 MBq/nmol; for `CCCCCCC(=O)N(O)CCCCCCCC(=O)N(O)CCCCCCCC(=O)N(O)CCCCCCCC(=O)N(O)CCC` [Ligand L7], 1.31 MBq/nmol.
